In the test the target is endogenous AFAP1L1 (human (endogenous in LoVo)) (UniProt Q8TED9). Briefly: co-IP; LoVo whole cell lysates, endogenous proteins; immunoprecipitated with the anti-AFAP1L1 Ab, immunoblotted with Abs against vinculin or other invadopodia or focal adhesion proteins. Background: A western blot detects proteins with antibodies after separation by electrophoresis.

The chains behind the UniProt entries cited, without tags or fusion partners.
UniProt Q8TED9: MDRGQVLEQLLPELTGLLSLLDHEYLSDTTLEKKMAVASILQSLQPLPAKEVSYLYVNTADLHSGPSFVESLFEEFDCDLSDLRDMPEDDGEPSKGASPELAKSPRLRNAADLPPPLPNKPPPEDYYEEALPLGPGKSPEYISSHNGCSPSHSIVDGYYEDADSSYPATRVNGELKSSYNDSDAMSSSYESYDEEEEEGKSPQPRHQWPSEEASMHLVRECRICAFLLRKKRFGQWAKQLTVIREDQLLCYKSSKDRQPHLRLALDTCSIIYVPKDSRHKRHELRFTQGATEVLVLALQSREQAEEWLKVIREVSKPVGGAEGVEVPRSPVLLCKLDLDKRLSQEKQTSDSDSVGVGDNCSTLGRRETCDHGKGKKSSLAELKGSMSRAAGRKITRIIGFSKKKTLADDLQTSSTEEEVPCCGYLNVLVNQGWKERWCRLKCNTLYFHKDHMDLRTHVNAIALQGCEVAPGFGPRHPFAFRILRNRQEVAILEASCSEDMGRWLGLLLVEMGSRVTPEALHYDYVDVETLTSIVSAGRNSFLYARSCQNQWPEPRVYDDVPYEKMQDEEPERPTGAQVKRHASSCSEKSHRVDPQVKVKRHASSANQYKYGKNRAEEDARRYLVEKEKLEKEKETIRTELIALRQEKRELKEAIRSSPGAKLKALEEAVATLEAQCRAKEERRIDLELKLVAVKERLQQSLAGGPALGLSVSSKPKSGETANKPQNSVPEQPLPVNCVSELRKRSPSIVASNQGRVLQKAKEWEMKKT
UniProt P49023: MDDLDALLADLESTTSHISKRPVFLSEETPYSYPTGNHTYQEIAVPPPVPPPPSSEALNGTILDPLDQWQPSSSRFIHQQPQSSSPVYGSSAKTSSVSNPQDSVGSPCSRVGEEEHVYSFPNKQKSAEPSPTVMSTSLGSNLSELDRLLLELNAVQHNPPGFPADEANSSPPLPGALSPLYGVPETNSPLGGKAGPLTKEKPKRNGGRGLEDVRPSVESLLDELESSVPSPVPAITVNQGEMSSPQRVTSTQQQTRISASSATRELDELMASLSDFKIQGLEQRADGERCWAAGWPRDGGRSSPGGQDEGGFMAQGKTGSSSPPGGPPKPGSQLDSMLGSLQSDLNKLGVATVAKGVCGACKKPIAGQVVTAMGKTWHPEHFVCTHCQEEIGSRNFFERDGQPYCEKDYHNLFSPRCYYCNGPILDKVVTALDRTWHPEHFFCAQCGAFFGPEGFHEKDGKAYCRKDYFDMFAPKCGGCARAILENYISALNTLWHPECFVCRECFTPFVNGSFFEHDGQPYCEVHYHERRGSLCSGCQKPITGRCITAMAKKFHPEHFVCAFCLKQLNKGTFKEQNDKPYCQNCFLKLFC
UniProt Q05397: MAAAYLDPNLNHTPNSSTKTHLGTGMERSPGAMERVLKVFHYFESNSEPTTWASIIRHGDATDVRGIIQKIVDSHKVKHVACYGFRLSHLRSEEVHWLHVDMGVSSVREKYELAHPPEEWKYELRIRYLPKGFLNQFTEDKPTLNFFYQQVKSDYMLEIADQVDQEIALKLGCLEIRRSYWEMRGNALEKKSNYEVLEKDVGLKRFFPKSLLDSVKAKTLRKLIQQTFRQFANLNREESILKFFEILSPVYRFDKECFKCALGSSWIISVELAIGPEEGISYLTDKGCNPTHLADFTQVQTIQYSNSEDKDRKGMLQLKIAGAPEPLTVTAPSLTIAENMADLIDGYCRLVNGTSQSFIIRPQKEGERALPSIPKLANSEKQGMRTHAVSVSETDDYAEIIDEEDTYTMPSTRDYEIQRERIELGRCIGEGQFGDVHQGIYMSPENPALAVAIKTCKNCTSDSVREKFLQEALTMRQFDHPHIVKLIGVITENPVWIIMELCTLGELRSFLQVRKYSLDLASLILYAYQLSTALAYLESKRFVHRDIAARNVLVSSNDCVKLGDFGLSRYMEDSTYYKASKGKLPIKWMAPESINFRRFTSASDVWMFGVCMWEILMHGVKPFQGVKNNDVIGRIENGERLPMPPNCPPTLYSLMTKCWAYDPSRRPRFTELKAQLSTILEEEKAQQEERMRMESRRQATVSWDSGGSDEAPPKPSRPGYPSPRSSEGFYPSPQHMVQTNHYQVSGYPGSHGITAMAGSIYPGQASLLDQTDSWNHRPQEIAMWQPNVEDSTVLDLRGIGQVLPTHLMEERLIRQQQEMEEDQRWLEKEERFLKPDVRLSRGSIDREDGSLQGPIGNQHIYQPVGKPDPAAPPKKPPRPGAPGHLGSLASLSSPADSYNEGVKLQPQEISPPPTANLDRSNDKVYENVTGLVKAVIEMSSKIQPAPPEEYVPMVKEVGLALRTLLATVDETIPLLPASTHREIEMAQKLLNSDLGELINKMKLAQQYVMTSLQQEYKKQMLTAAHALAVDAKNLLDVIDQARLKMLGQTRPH

The values that follow come from article PMC4303145.

These are yes or no findings as the source states them, for the method shown. Binding seen in cells or lysates may run through a third protein.

Take “endogenous paxillin (from UniProt P49023 1-591)”: the binding result is on record as “no binding”.
With “endogenous focal adhesion kinase (FAK) (from UniProt Q05397 1-1052)” the entry was “no binding”.
